Assay results taken from article doi:10.1101/2021.02.07.430097.

The chains behind the UniProt entries cited, without tags or fusion partners. Where a name states a change or a piece, a line headed by the entry shows the natural chain unless it says otherwise.
UniProt Q9UT61: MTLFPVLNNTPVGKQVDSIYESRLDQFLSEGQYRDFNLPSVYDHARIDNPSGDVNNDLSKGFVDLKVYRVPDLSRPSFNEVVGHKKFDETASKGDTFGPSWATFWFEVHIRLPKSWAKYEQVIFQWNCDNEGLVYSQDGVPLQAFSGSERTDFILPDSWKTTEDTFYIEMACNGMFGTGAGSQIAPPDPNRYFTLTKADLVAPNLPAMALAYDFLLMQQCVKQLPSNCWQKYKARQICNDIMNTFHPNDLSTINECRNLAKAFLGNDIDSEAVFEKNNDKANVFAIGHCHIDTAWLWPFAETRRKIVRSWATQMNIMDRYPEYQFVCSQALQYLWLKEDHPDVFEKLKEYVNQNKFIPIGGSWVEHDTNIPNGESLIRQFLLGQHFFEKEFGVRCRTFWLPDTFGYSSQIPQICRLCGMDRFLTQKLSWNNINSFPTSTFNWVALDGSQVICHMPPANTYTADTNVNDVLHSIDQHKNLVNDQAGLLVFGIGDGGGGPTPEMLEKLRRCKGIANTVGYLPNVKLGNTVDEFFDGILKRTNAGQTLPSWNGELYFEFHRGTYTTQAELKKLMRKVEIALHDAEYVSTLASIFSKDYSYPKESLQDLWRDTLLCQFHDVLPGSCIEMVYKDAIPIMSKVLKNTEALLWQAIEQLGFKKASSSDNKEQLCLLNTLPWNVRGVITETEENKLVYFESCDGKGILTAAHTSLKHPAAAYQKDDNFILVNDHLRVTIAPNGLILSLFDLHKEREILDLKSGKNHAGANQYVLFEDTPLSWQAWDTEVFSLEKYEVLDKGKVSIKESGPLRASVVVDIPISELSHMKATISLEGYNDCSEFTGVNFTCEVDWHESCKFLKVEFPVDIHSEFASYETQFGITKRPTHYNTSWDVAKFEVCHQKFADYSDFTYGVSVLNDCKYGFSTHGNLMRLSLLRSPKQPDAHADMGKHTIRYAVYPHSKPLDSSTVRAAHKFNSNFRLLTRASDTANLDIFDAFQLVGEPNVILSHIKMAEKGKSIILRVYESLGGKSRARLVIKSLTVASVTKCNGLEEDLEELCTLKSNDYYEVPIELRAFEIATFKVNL

Assays:
Lap2-TAP (S. pombe) = target: T1, Lap2-TAP (S. pombe) (UniProt O94544); assay: co-IP
T1 sequence: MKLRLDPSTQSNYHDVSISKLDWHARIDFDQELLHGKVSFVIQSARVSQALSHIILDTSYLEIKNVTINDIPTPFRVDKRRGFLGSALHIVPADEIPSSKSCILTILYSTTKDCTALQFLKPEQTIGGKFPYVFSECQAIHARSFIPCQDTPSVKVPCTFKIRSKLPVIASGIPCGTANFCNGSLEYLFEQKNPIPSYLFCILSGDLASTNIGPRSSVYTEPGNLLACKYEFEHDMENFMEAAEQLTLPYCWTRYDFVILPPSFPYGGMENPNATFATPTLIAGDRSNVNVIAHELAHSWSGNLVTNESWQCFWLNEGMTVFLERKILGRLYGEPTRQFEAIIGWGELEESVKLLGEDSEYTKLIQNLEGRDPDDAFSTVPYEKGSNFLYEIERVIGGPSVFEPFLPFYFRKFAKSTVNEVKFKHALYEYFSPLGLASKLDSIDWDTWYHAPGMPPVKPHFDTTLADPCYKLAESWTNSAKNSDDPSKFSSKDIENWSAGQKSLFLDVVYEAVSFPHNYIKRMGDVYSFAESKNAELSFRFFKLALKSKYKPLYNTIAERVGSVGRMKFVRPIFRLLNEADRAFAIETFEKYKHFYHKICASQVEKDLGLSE

[1] = target: T2, GST-Nbr1(53-129) (S. pombe) (UniProt Q9P792); assay: pull-down
T2 sequence: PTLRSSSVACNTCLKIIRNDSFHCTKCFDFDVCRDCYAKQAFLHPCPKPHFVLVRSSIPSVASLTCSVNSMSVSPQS

Ams1-mCherry (S. pombe) = Ams1-mCherry (S. pombe) (UniProt Q9UT61); assay: co-IP
[2] = target: Ams1 (full length) of the Ams1-Nbr1 fusion protein (S. pombe) (UniProt Q9UT61); assay: cryo-EM structure
[3] = target: Ape4 (full length) of the Ape4-Nbr1 fusion protein (S. pombe); assay: cryo-EM structure
Ape4-TAP (S. pombe) = assay: co-IP

With “Ams1-13Myc (from UniProt Q9UT61) (enzyme)” the binding (Lap2-TAP (S. pombe)) was “no binding”.

In the case of Ams1-FFH (from UniProt Q9UT61) (enzyme), the binding [1] is reported as “binds”.

For “Ape2 (endogenous) (S. pombe (endogenous in S. pombe)) (enzyme)”, the binding (Lap2-TAP (S. pombe)) was “binds”.

In the case of “Ape4 (endogenous) (S. pombe (endogenous in S. pombe)) (enzyme)”, the binding (Lap2-TAP (S. pombe)) is reported as “no binding”.

In the case of Ape4-FFH (S. pombe) (enzyme), the binding [1] is reported as “binds”.

B1: Endogenously TAP-tagged Nbr1 (protein, UniProt Q9P792 1-397)
chain: MLCNRTCPSSDCGILCNHSVPSFPPFHSSVANIHFTKENNLKSNIFEHNNNSPTLRSSSVACNTCLKIIRNDSFHCTKCFDFDVCRDCYAKQAFLHPCPKPHFVLVRSSIPSVASLTCSVNSMSVSPQSNFMYAICDHCEQPIHNVRYKCSVCDDYDICESCLTDNSHSNTHAFVRITKAYPHGLPSFHLFPQFLSAELFESASTVHRSVQCDNCLAHPIVGPRFHCLVCEDYDLCSSCVSHVHHDHHSMLRLTREISASPLHLSKPEKPKVLNFDFKLVEDSILPLELSPGCPFYKIWHIRNTSCQSWPSPLYVKFNGGDKLFPGDNPYSFPITSSVHPGEDVNFTVALKVPEKSNKEIFTAFFNICSDDGSVFHKSLCAFLRVPKSFSRISKSSF
In the case of B1, the binding (Ams1-mCherry (S. pombe)) is reported as “binds”.

B2: Nbr1(53-180) of the Ams1-Nbr1 fusion protein (domain or fragment, UniProt Q9P792 53-180)
chain: PTLRSSSVACNTCLKIIRNDSFHCTKCFDFDVCRDCYAKQAFLHPCPKPHFVLVRSSIPSVASLTCSVNSMSVSPQSNFMYAICDHCEQPIHNVRYKCSVCDDYDICESCLTDNSHSNTHAFVRITKA
For B2, the binding [2] was “binds”.

B3: Nbr1(53-129) of the Ape4-Nbr1 fusion protein (domain or fragment, UniProt Q9P792 53-129)
chain: T2 sequence
B3 was tested, and the binding [3] was “binds”.

B4: Lap2 (endogenous) (enzyme, UniProt O94544 1-612)
chain: T1 sequence
For B4, the binding (Ape4-TAP (S. pombe)) was “no binding” and the binding (Ams1-mCherry (S. pombe)) was “no binding”.

Results are given in words; binding and its absence hold for the method and conditions named. For some of these results: Binding can be weak; no strength is given. For some of these results: Tags and fused reporters may be left off the sequences shown. For some of these results: In cells and extracts the contact can be indirect.
